Reference: the supplement of paper PMC6411743
± gives the standard deviation of the averaged measurements. Only a part is listed here, and it is no random draw.

Amino acid sequences for entries named in this document (tags omitted). A change or cut given only in a name is not applied to a line headed by its entry.
UniProt Q14C86: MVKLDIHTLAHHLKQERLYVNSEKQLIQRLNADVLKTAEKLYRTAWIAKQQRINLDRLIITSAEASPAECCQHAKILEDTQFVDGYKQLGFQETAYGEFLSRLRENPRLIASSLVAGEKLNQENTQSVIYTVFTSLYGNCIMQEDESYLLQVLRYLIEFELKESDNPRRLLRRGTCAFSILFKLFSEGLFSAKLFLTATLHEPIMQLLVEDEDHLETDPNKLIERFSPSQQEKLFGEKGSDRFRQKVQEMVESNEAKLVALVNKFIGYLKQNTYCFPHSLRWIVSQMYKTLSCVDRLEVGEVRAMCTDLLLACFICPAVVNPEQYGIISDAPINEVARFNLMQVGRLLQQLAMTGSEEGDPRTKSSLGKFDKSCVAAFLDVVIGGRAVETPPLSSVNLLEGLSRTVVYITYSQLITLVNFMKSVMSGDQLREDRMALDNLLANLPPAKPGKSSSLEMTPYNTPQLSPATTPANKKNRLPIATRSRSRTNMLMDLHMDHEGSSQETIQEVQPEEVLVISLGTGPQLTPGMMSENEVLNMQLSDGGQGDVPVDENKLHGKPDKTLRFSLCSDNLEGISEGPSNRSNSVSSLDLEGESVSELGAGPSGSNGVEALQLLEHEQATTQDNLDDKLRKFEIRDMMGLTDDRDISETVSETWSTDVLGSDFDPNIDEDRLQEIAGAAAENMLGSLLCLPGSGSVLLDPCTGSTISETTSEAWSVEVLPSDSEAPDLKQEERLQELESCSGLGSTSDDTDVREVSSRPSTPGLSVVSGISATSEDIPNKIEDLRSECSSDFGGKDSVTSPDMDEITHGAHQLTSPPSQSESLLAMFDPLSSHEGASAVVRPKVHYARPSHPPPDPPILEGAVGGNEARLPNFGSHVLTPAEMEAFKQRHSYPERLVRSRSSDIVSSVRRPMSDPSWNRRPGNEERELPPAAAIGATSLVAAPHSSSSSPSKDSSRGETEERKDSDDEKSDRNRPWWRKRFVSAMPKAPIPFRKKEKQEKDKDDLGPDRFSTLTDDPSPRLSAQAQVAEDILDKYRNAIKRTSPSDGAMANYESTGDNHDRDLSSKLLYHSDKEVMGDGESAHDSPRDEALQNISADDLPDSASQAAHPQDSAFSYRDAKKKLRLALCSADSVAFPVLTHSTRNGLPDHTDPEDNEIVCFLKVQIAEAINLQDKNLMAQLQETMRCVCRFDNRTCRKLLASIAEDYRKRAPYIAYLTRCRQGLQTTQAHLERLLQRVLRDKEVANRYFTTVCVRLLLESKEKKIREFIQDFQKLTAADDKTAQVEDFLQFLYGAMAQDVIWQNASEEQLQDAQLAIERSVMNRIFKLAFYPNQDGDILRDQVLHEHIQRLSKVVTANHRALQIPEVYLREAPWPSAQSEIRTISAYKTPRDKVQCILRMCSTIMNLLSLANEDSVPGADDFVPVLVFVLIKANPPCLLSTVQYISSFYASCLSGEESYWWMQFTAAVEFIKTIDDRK
UniProt P51610: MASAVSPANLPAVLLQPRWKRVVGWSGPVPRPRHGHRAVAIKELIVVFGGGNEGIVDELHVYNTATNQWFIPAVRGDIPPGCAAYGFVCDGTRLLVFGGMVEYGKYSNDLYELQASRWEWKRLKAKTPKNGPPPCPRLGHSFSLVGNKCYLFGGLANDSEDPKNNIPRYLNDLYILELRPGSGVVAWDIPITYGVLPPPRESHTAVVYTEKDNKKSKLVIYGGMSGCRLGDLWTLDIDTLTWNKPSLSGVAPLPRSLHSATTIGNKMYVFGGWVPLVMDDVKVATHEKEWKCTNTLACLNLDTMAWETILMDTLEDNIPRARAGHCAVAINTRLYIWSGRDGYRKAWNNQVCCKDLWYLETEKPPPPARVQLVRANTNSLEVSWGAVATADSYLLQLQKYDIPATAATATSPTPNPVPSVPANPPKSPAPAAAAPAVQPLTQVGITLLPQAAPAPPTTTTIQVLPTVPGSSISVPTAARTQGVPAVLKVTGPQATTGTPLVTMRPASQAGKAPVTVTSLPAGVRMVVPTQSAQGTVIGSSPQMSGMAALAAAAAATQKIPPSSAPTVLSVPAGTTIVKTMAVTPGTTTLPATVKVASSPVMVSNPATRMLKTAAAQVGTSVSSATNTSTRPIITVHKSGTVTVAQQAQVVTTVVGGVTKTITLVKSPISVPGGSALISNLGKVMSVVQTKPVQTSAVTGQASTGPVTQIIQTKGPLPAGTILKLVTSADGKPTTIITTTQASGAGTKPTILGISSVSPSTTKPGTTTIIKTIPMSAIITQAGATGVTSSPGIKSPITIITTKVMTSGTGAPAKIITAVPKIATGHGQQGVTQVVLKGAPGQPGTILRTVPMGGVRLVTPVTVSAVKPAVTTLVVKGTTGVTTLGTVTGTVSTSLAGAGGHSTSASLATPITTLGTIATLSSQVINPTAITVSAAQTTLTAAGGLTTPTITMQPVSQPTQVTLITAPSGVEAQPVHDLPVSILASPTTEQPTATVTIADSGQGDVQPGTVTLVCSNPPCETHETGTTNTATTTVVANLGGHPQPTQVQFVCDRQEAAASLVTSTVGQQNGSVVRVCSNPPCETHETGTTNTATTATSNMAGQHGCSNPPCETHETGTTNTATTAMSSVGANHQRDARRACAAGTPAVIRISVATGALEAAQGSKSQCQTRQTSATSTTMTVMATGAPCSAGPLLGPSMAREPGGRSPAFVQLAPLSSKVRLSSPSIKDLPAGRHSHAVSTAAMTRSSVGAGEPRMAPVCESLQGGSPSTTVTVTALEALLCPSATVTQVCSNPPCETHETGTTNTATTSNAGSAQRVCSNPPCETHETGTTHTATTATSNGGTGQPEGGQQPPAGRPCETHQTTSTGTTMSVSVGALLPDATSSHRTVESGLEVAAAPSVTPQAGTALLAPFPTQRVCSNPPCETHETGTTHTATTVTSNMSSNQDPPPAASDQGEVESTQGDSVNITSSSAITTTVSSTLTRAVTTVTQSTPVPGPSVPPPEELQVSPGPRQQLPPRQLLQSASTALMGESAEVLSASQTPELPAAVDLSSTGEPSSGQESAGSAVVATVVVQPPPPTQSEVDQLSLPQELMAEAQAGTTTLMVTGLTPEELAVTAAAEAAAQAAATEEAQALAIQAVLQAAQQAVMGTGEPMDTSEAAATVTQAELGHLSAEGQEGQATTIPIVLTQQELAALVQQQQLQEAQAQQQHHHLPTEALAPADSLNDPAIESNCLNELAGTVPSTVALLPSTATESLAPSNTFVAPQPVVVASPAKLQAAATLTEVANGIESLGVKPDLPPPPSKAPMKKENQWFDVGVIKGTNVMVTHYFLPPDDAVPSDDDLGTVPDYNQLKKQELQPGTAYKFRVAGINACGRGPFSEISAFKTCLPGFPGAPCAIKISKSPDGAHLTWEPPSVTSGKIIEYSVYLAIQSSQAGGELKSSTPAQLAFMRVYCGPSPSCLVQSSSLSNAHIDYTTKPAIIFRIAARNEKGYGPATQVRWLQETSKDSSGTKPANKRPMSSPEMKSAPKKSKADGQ
UniProt P42892: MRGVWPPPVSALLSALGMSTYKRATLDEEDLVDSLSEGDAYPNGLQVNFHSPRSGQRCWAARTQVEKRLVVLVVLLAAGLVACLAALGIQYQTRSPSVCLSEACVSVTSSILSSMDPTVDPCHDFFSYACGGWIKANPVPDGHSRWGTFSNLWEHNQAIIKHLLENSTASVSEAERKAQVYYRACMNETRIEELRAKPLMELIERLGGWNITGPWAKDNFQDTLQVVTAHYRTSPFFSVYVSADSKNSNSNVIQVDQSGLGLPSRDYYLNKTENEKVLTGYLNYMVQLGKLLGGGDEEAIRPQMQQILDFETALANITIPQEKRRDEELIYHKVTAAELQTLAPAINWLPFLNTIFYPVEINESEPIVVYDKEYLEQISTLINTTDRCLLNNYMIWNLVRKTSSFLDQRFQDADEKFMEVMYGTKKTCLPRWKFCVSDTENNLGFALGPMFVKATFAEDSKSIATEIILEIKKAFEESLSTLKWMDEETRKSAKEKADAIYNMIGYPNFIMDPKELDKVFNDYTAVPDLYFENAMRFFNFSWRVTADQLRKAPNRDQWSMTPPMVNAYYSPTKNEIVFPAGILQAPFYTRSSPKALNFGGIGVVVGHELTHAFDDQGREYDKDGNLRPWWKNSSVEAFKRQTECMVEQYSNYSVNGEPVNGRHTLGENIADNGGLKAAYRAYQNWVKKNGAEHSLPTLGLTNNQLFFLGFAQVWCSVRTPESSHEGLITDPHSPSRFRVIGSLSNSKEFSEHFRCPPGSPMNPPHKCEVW
UniProt Q8N8S7: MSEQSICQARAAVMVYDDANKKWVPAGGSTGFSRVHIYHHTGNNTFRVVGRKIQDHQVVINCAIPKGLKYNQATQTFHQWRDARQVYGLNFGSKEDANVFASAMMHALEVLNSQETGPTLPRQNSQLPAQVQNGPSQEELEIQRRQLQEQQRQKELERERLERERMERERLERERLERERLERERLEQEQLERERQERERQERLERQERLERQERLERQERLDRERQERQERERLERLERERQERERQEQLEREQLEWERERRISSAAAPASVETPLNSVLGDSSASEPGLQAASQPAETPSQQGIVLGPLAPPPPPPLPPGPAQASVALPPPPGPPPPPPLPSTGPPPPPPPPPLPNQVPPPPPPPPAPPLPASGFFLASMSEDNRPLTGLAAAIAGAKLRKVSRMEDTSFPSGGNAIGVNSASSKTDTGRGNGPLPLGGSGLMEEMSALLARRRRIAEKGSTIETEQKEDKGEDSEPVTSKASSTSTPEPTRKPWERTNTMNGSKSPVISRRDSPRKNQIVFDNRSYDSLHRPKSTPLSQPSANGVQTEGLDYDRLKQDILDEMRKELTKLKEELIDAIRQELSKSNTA
UniProt A0MZ66, whole entry: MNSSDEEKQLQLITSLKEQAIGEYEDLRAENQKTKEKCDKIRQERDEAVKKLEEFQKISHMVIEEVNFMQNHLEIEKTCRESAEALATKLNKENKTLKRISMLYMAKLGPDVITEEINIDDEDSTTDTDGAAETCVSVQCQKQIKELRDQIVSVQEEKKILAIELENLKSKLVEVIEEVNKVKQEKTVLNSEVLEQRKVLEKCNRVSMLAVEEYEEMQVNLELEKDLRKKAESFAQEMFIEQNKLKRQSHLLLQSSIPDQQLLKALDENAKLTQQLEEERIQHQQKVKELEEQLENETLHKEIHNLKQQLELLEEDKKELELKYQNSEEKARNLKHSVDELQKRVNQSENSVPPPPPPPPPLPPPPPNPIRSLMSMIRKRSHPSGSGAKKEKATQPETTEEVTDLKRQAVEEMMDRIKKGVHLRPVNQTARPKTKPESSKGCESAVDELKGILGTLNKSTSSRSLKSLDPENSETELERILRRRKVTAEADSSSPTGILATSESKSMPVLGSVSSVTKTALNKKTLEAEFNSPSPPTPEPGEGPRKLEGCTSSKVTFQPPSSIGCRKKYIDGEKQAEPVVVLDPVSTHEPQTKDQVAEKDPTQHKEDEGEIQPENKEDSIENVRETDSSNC
UniProt O95319: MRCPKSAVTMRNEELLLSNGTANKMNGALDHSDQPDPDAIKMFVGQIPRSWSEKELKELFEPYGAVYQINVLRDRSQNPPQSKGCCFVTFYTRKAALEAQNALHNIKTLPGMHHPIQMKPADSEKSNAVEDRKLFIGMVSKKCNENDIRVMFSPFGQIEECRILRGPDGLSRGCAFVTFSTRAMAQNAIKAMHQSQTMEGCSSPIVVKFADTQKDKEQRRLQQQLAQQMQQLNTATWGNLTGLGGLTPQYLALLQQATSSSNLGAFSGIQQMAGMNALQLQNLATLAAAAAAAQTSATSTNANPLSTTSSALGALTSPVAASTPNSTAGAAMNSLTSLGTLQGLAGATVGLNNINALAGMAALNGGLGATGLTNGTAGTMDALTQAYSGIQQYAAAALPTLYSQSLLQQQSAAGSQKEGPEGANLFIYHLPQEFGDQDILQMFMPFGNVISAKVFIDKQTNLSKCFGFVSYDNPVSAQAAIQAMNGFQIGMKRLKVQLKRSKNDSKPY
UniProt P63098, whole entry, looked up: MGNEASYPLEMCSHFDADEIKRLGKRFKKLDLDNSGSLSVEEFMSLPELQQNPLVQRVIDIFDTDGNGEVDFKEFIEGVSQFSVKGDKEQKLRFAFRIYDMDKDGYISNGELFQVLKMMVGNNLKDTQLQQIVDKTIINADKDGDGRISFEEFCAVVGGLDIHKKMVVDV

Compound: Nc1ncnc2c1ncn2[C@@H]1O[C@H](COP(=O)(O)OP(=O)(O)OP(=O)(O)O)[C@@H](O)[C@H]1O [adenosine triphosphate]
Assay: NP40-soluble protein abundance relative to vehicle (solubility fold change) (ratio); higher = more soluble protein in presence of ATP
Method in brief: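 Data come from three independent experiments in which Dounce-homogenised Jurkat crude lysate was treated at eight concentrations from 0.1 to 10 mM. Treatment ran 10 min at room temperature and then 3 min at 37 °C, after which 0.8% NP40 and benzonase were added for 60 min at 4 °C before ultracentrifugation. The supernatant underwent TMT labelling and LC-MS/MS, and vsn-normalised intensities were expressed as fold change against the detergent-processed vehicle in each replicate.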

C9J8B8 and related entries (UniProt Q969S8)
NP40-soluble protein abundance (concentration: 1mM): 0.847 ± 0.012 | NP40-soluble protein abundance (concentration: 2mM): 0.872 ± 0.091 | NP40-soluble protein abundance (concentration: 4mM): 0.817 ± 0.063 | NP40-soluble protein abundance (concentration: 6mM): 0.857 ± 0.016 | NP40-soluble protein abundance (concentration: 8mM): 0.901 ± 0.17 | NP40-soluble protein abundance (concentration: 10mM): 0.859 ± 0.1

UniProt A2RRP1 and related entries
NP40-soluble protein abundance (concentration: 1mM): 1.04 ± 0.085 | NP40-soluble protein abundance (concentration: 2mM): 1 ± 0.061 | NP40-soluble protein abundance (concentration: 4mM): 1 ± 0.044 | NP40-soluble protein abundance (concentration: 6mM): 0.945 ± 0.06 | NP40-soluble protein abundance (concentration: 8mM): 1.02 ± 0.015 | NP40-soluble protein abundance (concentration: 10mM): 0.997 ± 0.061

A0A0U1RRH6 (UniProt O94880)
NP40-soluble protein abundance (concentration: 1mM): 1.07 ± 0.054 | NP40-soluble protein abundance (concentration: 2mM): 1.1 ± 0.039 | NP40-soluble protein abundance (concentration: 4mM): 1.1 ± 0.032 | NP40-soluble protein abundance (concentration: 6mM): 1.2 ± 0.042 | NP40-soluble protein abundance (concentration: 8mM): 1.22 ± 0.016 | NP40-soluble protein abundance (concentration: 10mM): 1.32 ± 0.038

B0QZ65 and related entries (UniProt Q14C86)
NP40-soluble protein abundance (concentration: 1mM): 0.97 ± 0.01 | NP40-soluble protein abundance (concentration: 2mM): 0.98 ± 0.03 | NP40-soluble protein abundance (concentration: 4mM): 0.9584 ± 0.0054 | NP40-soluble protein abundance (concentration: 6mM): 0.924 ± 0.036 | NP40-soluble protein abundance (concentration: 8mM): 0.969 ± 0.025 | NP40-soluble protein abundance (concentration: 10mM): 0.965 ± 0.029

B1AMW1 and related entries (UniProt P19256)
NP40-soluble protein abundance (concentration: 1mM): 0.917 ± 0.12 | NP40-soluble protein abundance (concentration: 2mM): 0.952 ± 0.092 | NP40-soluble protein abundance (concentration: 4mM): 0.932 ± 0.084 | NP40-soluble protein abundance (concentration: 6mM): 0.937 ± 0.12 | NP40-soluble protein abundance (concentration: 8mM): 0.8596 ± 0.006 | NP40-soluble protein abundance (concentration: 10mM): 0.844 ± 0.1

C9JA28 and related entries (UniProt Q9UNL2)
NP40-soluble protein abundance (concentration: 1mM): 0.94 ± 0.043 | NP40-soluble protein abundance (concentration: 2mM): 0.919 ± 0.033 | NP40-soluble protein abundance (concentration: 4mM): 0.883 ± 0.032 | NP40-soluble protein abundance (concentration: 6mM): 0.93 ± 0.048 | NP40-soluble protein abundance (concentration: 8mM): 0.885 ± 0.078 | NP40-soluble protein abundance (concentration: 10mM): 0.871 ± 0.071

A6NEM2 and related entries (UniProt P51610)
NP40-soluble protein abundance (concentration: 1mM): 0.989 ± 0.035 | NP40-soluble protein abundance (concentration: 2mM): 0.981 ± 0.045 | NP40-soluble protein abundance (concentration: 4mM): 0.967 ± 0.045 | NP40-soluble protein abundance (concentration: 6mM): 1.02 ± 0.062 | NP40-soluble protein abundance (concentration: 8mM): 0.959 ± 0.035 | NP40-soluble protein abundance (concentration: 10mM): 0.976 ± 0.029

B4DKB2 and related entries (UniProt P42892)
NP40-soluble protein abundance (concentration: 1mM): 0.941 ± 0.024 | NP40-soluble protein abundance (concentration: 2mM): 0.975 ± 0.021 | NP40-soluble protein abundance (concentration: 4mM): 0.968 ± 0.013 | NP40-soluble protein abundance (concentration: 6mM): 0.99 ± 0.06 | NP40-soluble protein abundance (concentration: 8mM): 0.945 ± 0.028 | NP40-soluble protein abundance (concentration: 10mM): 0.918 ± 0.045

A8MTY9 and related entries (UniProt O14972)
NP40-soluble protein abundance (concentration: 1mM): 1.03 ± 0.024 | NP40-soluble protein abundance (concentration: 2mM): 1.06 ± 0.035 | NP40-soluble protein abundance (concentration: 4mM): 1.09 ± 0.029 | NP40-soluble protein abundance (concentration: 6mM): 1.04 ± 0.031 | NP40-soluble protein abundance (concentration: 8mM): 1.07 ± 0.015 | NP40-soluble protein abundance (concentration: 10mM): 1.05 ± 0.059

A0A0U1RRM6|Q8N8S7 and related entries (UniProt Q8N8S7)
NP40-soluble protein abundance (concentration: 1mM): 0.972 ± 0.041 | NP40-soluble protein abundance (concentration: 2mM): 0.968 ± 0.022 | NP40-soluble protein abundance (concentration: 4mM): 0.933 ± 0.025 | NP40-soluble protein abundance (concentration: 6mM): 0.971 ± 0.023 | NP40-soluble protein abundance (concentration: 8mM): 0.939 ± 0.05 | NP40-soluble protein abundance (concentration: 10mM): 0.963 ± 0.025

UniProt A0MZ66
NP40-soluble protein abundance (concentration: 1mM): 1 ± 0.023 | NP40-soluble protein abundance (concentration: 2mM): 0.994 ± 0.024 | NP40-soluble protein abundance (concentration: 4mM): 0.9772 ± 0.0021 | NP40-soluble protein abundance (concentration: 6mM): 1.05 ± 0.034 | NP40-soluble protein abundance (concentration: 8mM): 0.974 ± 0.049 | NP40-soluble protein abundance (concentration: 10mM): 0.98 ± 0.049

B5MC15 and related entries (UniProt Q13191)
NP40-soluble protein abundance (concentration: 1mM): 1.06 ± 0.073 | NP40-soluble protein abundance (concentration: 2mM): 1.03 ± 0.033 | NP40-soluble protein abundance (concentration: 4mM): 1.04 ± 0.12 | NP40-soluble protein abundance (concentration: 6mM): 1 ± 0.081 | NP40-soluble protein abundance (concentration: 8mM): 0.998 ± 0.085 | NP40-soluble protein abundance (concentration: 10mM): 1.03 ± 0.034

A8MST6 and related entries (UniProt Q5JTW2)
NP40-soluble protein abundance (concentration: 1mM): 1.04 ± 0.11 | NP40-soluble protein abundance (concentration: 2mM): 0.977 ± 0.22 | NP40-soluble protein abundance (concentration: 4mM): 0.977 ± 0.24 | NP40-soluble protein abundance (concentration: 6mM): 1.09 ± 0.29 | NP40-soluble protein abundance (concentration: 8mM): 0.938 ± 0.14 | NP40-soluble protein abundance (concentration: 10mM): 0.909 ± 0.25

A0A0J9YXJ0|E9PC62 and related entries (UniProt O95319)
NP40-soluble protein abundance (concentration: 1mM): 0.973 ± 0.055 | NP40-soluble protein abundance (concentration: 2mM): 0.981 ± 0.011 | NP40-soluble protein abundance (concentration: 4mM): 0.9516 ± 0.006 | NP40-soluble protein abundance (concentration: 6mM): 0.976 ± 0.031 | NP40-soluble protein abundance (concentration: 8mM): 0.931 ± 0.022 | NP40-soluble protein abundance (concentration: 10mM): 0.935 ± 0.02

D3YTA9 and related entries (UniProt H7BYZ3+F6U1T9+P63098+D3YTA9)
NP40-soluble protein abundance (concentration: 1mM): 0.969 ± 0.037 | NP40-soluble protein abundance (concentration: 2mM): 0.951 ± 0.03 | NP40-soluble protein abundance (concentration: 4mM): 0.957 ± 0.012 | NP40-soluble protein abundance (concentration: 6mM): 1 ± 0.028 | NP40-soluble protein abundance (concentration: 8mM): 0.909 ± 0.018 | NP40-soluble protein abundance (concentration: 10mM): 0.897 ± 0.067
